The series is described as follows: Bleaching study of sulfonated peracids, Terg-o-tometer, % soil removal. Particulars: for SR (%) Red Wine on 100% cotton / SR (%) Tea on 100% cotton / SR (%) Tea on cotton-poly blend: 50 ppm available oxygen, 100° F., pH 7, 5 grain hard water, 20 minute; for SR (%) Red Wine on 100% cotton, compared to the POAA control / SR (%) Tea on 100% cotton, compared to the POAA control / SR (%) Tea on cotton-poly blend, compared to the POAA control: difference to equimolar peroxyacetic acid.

Each structure is given as a SMILES string.

On to `CC(=O)OO` [POAA, peroxyacetic acid], for which the “SR (%) Red Wine on 100% cotton” value is 68%; the “SR (%) Tea on 100% cotton” value was determined as 50%; the “SR (%) Tea on cotton-poly blend” value came out at 42%; the “SR (%) Red Wine on 100% cotton, compared to the POAA control” value came to 0%. In addition, the “SR (%) Tea on 100% cotton, compared to the POAA control” value worked out at 0% and the “SR (%) Tea on cotton-poly blend, compared to the POAA control” value was 0%.
Regarding `O=C(CS(=O)(=O)O)OO` [Compound 2-SPOAA, 2-Sulfoperoxyacetic acid], the “SR (%) Red Wine on 100% cotton” value amounted to 46%; the “SR (%) Tea on 100% cotton” value was determined as 4%; the “SR (%) Tea on cotton-poly blend” value was −2%; the “SR (%) Red Wine on 100% cotton, compared to the POAA control” value is reported as −22%. Moreover, the “SR (%) Tea on 100% cotton, compared to the POAA control” value is given as −46% and the “SR (%) Tea on cotton-poly blend, compared to the POAA control” value is reported as −44%.

These data come from patent US8871807B2, “Detergents capable of cleaning, bleaching, sanitizing and/or disinfecting textiles including sulfoperoxycarboxylic acids” (Ecolab USA Inc., priority 2008, dated 2014).
